Reference: article PMC11766031
Results are given in words; binding and its absence hold for the method and conditions named. In cells and extracts the contact can be indirect. Some results given as binding are weak or reduced against the parent protein; the word gives no strength. For some assays here: Where a sequence is shown, tags or fusion partners need not be part of it.

Chains of the proteins cited; added tags and fusions are not shown.
UniProt P46937: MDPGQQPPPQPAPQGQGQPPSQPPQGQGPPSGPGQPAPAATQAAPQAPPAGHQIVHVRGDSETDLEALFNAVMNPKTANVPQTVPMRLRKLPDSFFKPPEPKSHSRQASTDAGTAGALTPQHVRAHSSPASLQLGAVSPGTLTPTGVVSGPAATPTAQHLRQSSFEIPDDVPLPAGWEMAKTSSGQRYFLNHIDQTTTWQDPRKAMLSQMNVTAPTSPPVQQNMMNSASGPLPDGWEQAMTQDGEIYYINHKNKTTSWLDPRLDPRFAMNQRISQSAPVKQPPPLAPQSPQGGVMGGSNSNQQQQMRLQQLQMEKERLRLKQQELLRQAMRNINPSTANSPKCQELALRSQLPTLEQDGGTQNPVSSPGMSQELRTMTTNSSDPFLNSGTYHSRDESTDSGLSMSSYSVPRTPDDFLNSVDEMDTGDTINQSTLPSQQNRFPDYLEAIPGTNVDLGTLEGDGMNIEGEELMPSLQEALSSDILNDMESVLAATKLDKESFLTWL
UniProt Q9GZV5: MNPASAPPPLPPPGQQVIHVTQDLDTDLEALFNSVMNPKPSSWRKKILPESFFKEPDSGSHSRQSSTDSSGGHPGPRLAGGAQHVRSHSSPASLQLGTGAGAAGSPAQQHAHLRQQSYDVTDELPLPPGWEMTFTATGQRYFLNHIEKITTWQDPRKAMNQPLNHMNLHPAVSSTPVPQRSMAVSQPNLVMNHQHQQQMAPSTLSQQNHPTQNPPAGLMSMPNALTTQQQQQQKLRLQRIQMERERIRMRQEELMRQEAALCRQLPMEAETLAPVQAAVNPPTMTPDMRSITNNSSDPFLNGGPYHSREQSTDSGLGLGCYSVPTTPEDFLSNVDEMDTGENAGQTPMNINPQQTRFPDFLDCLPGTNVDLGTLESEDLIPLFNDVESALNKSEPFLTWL

What was measured:
[1] = target: yes-associated protein (YAP), endogenous (human (endogenous in HepG2, HuH6, HLF)) (UniProt P46937); experiment: co-IP; endogenous YAP or TAZ precipitated from HepG2 cells, MPP5 detected; rabbit serum IgG as negative control
[2] = target: YAP, overexpressed in HepG2 cells (UniProt P46937); experiment: co-IP; after overexpression of YAP or TAZ for 48 h in HepG2 cells; rabbit serum IgG as negative control
[3] = target: TAZ, overexpressed in HepG2 cells (UniProt Q9GZV5); experiment: as above
[4] = target: yes-associated protein (YAP), endogenous (human (endogenous in HepG2, HuH6, HLF)) (UniProt P46937); experiment: proximity ligation; Duolink PLA on fixed, permeabilised HepG2, HuH6 and HLF cells with YAP and MPP5 antibodies; single antibody incubations as controls
HA-tagged YAP = HA-tagged YAP (UniProt P46937); experiment: co-IP; co-expression of HA-tagged YAP and Flag-tagged MPP5 isoforms for 48 h; YAP precipitated with an HA-specific antibody, MPP5 isoforms detected

binding [1] | binding [2] | binding [3] | binding [4] | binding (HA-tagged YAP) | Binder
binds | binds | binds | binds | – | membrane protein palmitoylated 5 (MPP5), endogenous (protein, UniProt Q8N3R9 1-675) MTTSHMNGHVTEESDSEVKNVDLASPEEHQKHREMAVDCPGDLGTRMMPIRRSAQLERIRQQQEDMRRRREEEGKKQELDLNSSMRLKKLAQIPPKTGIDNPMFDTEEGIVLESPHYAVKILEIEDLFSSLKHIQHTLVDSQSQEDISLLLQLVQNKDFQNAFKIHNAITVHMNKASPPFPLISNAQDLAQEVQTVLKPVHHKEGQELTALLNTPHIQALLLAHDKVAEQEMQLEPITDERVYESIGQYGGETVKIVRIEKARDIPLGATVRNEMDSVIISRIVKGGAAEKSGLLHEGDEVLEINGIEIRGKDVNEVFDLLSDMHGTLTFVLIPSQQIKPPPAKETVIHVKAHFDYDPSDDPYVPCRELGLSFQKGDILHVISQEDPNWWQAYREGDEDNQPLAGLVPGKSFQQQREAMKQTIEEDKEPEKSGKLWCAKKNKKKRKKVLYNANKNDDYDNEEILTYEEMSLYHQPANRKRPIILIGPQNCGQNELRQRLMNKEKDRFASAVPHTTRSRRDQEVAGRDYHFVSRQAFEADIAAGKFIEHGEFEKNLYGTSIDSVRQVINSGKICLLSLRTQSLKTLRNSDLKPYIIFIAPPSQERLRALLAKEGKNPKPEELREIIEKTREMEQNNGHYFDTAIVNSDLDKAYQELLRLINKLDTEPQWVPSTWLR
– | – | – | – | binds | Flag-tagged MPP5 (non-deleted isoform) (protein, UniProt Q8N3R9 1-675) MTTSHMNGHVTEESDSEVKNVDLASPEEHQKHREMAVDCPGDLGTRMMPIRRSAQLERIRQQQEDMRRRREEEGKKQELDLNSSMRLKKLAQIPPKTGIDNPMFDTEEGIVLESPHYAVKILEIEDLFSSLKHIQHTLVDSQSQEDISLLLQLVQNKDFQNAFKIHNAITVHMNKASPPFPLISNAQDLAQEVQTVLKPVHHKEGQELTALLNTPHIQALLLAHDKVAEQEMQLEPITDERVYESIGQYGGETVKIVRIEKARDIPLGATVRNEMDSVIISRIVKGGAAEKSGLLHEGDEVLEINGIEIRGKDVNEVFDLLSDMHGTLTFVLIPSQQIKPPPAKETVIHVKAHFDYDPSDDPYVPCRELGLSFQKGDILHVISQEDPNWWQAYREGDEDNQPLAGLVPGKSFQQQREAMKQTIEEDKEPEKSGKLWCAKKNKKKRKKVLYNANKNDDYDNEEILTYEEMSLYHQPANRKRPIILIGPQNCGQNELRQRLMNKEKDRFASAVPHTTRSRRDQEVAGRDYHFVSRQAFEADIAAGKFIEHGEFEKNLYGTSIDSVRQVINSGKICLLSLRTQSLKTLRNSDLKPYIIFIAPPSQERLRALLAKEGKNPKPEELREIIEKTREMEQNNGHYFDTAIVNSDLDKAYQELLRLINKLDTEPQWVPSTWLR
